According to paper doi:10.1101/2025.10.08.681182:
No constants are given. Whether binding was seen depends on the method and setting. Some results given as binding are weak or reduced against the parent protein; the word gives no strength. For part of these data: Tags and fused reporters may be left off the sequences shown.

Key:
Test in all cases: co-purification
SEPT9 (human), Q9UHD8 = target: T1, SEPT9 (human), Q9UHD8; conditions: remark: other sources report otherwise
T1 chain: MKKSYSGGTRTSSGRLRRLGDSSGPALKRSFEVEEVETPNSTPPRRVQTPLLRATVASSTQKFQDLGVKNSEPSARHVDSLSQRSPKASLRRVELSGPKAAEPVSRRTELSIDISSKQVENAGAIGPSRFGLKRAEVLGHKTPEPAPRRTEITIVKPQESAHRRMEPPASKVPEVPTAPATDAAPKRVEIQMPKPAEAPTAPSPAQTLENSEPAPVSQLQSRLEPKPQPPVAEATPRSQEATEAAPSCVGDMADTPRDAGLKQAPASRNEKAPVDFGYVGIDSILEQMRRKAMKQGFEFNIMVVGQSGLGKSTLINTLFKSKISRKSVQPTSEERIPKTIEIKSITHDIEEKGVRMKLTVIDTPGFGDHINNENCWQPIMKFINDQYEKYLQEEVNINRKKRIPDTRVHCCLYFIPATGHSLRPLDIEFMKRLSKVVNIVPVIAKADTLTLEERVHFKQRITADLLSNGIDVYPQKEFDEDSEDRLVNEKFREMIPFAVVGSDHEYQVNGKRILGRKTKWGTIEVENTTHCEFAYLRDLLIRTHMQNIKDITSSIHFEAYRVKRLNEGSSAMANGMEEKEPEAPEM

[1] = target: T2, Cdc10-GFP (budding yeast) (UniProt P25342)
T2 sequence: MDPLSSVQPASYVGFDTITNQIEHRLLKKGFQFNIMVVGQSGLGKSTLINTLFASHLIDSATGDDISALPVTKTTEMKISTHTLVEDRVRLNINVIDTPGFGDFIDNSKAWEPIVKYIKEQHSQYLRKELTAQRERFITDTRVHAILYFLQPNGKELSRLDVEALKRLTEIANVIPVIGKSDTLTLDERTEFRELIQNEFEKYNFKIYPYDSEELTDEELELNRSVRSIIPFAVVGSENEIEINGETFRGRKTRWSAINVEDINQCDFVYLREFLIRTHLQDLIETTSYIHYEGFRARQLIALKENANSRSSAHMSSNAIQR

Cdc3 (budding yeast) = target: T3, Cdc3 (budding yeast) (UniProt P32457)
T3 sequence: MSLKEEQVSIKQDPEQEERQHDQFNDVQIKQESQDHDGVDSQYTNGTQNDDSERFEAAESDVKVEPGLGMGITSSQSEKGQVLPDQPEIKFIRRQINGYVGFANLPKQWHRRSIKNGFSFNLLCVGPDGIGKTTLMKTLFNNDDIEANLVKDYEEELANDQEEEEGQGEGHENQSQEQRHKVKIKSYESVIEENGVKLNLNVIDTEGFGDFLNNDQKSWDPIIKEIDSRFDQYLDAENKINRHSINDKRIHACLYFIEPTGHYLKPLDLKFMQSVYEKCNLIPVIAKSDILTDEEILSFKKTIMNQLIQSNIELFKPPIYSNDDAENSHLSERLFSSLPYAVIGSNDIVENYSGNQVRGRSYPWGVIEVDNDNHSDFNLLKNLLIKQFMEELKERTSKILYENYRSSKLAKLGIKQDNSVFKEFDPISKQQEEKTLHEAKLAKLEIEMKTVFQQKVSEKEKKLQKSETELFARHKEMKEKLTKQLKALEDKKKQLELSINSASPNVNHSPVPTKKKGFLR

SEPT2GFP (human) = target: T4, SEPT2GFP (human) (UniProt Q15019)
T4 sequence: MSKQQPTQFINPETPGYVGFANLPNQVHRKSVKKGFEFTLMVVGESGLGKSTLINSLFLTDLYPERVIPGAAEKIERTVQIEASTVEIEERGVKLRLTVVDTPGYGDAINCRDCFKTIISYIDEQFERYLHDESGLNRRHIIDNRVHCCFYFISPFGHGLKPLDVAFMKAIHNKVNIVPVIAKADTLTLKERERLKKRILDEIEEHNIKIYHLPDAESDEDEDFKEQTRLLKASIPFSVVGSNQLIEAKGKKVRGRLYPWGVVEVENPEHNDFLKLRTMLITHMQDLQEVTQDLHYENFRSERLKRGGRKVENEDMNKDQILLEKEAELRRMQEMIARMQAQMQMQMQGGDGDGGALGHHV

SEPT6 (human) = target: T5, SEPT6 (human) (UniProt Q14141)
T5 sequence: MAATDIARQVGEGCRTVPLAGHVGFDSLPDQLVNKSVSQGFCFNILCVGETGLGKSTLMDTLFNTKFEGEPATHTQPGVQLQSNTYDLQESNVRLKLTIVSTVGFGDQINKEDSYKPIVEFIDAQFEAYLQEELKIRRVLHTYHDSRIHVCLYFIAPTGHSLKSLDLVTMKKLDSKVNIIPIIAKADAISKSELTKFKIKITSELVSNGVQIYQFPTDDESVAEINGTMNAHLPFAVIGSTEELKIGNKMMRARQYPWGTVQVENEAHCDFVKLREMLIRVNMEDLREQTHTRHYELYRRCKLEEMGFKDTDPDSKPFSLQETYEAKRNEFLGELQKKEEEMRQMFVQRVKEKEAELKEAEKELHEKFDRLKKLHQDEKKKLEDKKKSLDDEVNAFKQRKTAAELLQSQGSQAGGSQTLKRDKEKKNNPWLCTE

SEPT7 (human) = target: T6, SEPT7 (human) (UniProt Q16181)
T6 sequence: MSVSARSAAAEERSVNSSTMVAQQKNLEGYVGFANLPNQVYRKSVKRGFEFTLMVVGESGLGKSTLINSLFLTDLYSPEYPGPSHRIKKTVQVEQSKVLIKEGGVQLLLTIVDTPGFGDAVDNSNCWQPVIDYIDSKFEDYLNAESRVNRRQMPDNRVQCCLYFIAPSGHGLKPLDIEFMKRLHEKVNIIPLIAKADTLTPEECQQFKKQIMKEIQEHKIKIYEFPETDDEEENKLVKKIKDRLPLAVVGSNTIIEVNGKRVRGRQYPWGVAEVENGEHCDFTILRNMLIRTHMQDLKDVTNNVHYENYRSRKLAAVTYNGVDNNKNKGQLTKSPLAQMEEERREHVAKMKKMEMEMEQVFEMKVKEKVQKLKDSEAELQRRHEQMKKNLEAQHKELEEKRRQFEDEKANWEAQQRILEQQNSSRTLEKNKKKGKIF

B1: SEPT9, Q9UHD8 1-586 (protein)
chain: T1 chain
With B1 the binding (SEPT9 (human), Q9UHD8) was “binds”.

B2: Cdc3 (protein, UniProt P32457 1-520)
chain: T3 sequence
B2 was tested, and the binding [1] was “binds”.

B3: Cdc12 (protein, UniProt P32468 1-407)
chain: MSAATATAAPVPPPVGISNLPNQRYKIVNEEGGTFTVMLCGESGLGKTTFINTLFQTVLKRADGQQHRQEPIRKTVEIDITRALLEEKHFELRVNVIDTPGFGDNVNNNKAWQPLVDFIDDQHDSYMRQEQQPYRTKKFDLRVHAVLYFIRPTGHGLKPIDIETMKRLSTRANLIPVIAKADTLTAQELQQFKSRIRQVIEAQEIRIFTPPLDADSKEDAKSGSNPDSAAVEHARQLIEAMPFAIVGSEKKFDNGQGTQVVARKYPWGLVEIENDSHCDFRKLRALLLRTYLLDLISTTQEMHYETYRRLRLEGHENTGEGNEDFTLPAIAPARKLSHNPRYKEEENALKKYFTDQVKAEEQRFRQWEQNIVNERIRLNGDLEEIQGKVKKLEEQVKSLQVKKSHLK
B3 was tested, and the binding (Cdc3 (budding yeast)) was “binds”.

B4: SEPT6 (protein, UniProt Q14141 1-434)
chain: T5 sequence
B4 was tested, and the binding (SEPT2GFP (human)) was “binds”.

B5: SEPT7 (protein, UniProt Q16181 1-437)
chain: T6 sequence
For B5, the binding (SEPT6 (human)) was “binds”.

B6: SEPT9 (protein, UniProt Q9UHD8 1-586)
chain: T1 chain
B6 was tested, and the binding (SEPT7 (human)) was “binds”.
